In paper PMC10024693 one finds binding data, which are given here for two substances.

Chains of the proteins cited; added tags and fusions are not shown.
UniProt Q969H0: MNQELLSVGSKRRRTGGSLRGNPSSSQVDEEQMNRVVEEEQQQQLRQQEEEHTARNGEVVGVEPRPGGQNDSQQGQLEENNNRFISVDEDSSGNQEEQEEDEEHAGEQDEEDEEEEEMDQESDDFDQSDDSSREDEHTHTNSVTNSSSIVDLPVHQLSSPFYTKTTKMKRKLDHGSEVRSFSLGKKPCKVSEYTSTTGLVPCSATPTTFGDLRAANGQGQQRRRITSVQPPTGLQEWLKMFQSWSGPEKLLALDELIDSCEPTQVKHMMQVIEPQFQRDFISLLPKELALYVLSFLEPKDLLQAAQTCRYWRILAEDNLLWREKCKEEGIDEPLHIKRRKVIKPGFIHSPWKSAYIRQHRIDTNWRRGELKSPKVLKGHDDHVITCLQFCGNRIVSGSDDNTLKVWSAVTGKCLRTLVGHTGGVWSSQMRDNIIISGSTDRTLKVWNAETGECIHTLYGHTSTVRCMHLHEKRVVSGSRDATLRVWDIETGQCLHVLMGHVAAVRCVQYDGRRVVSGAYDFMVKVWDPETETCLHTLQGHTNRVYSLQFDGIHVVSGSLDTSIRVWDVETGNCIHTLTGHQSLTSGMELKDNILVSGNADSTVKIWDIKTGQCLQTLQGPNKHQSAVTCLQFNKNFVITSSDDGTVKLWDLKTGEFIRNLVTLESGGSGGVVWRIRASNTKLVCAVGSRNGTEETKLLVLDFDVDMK

Positions count from the first letter of the chain named. These are yes or no findings as the source states them, for the method shown. Binding seen in cells or lysates may run through a third protein. Some entries that bind do so weakly or less than the wild type. For part of these data: Sequences can lack the tags named with a protein.

Assay [1] deals with T1, Myc-DYRK2 wild type (dual-specificity tyrosine-phosphorylation-regulated kinase 2) (human) (UniProt Q92630).
T1 sequence: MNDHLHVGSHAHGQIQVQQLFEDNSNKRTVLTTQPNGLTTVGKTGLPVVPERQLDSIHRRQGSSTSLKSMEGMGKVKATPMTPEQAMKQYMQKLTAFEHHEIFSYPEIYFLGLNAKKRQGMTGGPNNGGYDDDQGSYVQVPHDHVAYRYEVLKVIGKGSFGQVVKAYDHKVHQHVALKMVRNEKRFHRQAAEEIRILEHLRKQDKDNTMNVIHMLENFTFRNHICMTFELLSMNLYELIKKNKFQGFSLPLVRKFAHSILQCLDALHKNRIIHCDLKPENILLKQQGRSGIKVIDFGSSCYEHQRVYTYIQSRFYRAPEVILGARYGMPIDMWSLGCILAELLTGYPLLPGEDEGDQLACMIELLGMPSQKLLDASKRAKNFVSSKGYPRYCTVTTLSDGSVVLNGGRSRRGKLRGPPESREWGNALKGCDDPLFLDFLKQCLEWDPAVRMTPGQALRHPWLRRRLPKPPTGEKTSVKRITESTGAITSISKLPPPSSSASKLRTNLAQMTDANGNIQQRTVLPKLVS
Briefly: co-IP; HEK-293T co-transfected with Flag-FBXW7 and Myc-DYRK2 WT or KD; cells treated with MG-132 (10 μM); immunoprecipitation with a Myc antibody or control IgGs; WB.

Assay [2] deals with T2, Myc-DYRK2 kinase-dead (KD, K178M) (human) (UniProt Q92630).
T2 sequence: T1 sequence with K178M
The assay is described as above.

The target of assay [3] is T3, endogenous DYRK2 of HCT116 cells (human (endogenous in HCT116)) (UniProt Q92630).
T3 sequence: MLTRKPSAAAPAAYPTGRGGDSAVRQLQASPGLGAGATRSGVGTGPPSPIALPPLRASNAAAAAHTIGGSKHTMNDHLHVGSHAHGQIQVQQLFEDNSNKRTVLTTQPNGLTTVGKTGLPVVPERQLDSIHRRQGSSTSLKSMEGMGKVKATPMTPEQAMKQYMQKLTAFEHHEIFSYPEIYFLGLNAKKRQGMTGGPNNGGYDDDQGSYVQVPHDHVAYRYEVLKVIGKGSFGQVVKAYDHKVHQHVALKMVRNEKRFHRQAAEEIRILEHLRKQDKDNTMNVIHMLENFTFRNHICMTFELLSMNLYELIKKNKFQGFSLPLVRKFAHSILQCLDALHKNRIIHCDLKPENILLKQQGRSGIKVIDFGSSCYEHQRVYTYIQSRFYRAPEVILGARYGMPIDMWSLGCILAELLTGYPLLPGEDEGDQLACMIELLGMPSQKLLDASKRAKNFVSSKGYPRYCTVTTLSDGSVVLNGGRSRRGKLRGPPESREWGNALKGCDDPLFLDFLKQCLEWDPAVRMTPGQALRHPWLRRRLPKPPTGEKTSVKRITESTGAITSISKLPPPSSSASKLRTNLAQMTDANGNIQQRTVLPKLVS
Briefly: co-IP; HCT116 cells WT (+/+) and FBXW7 (−/−) treated with DOX (2 μg/ml) or vehicle for 12 h, MG-132 (10 μM); immunoprecipitation with a DYRK2 antibody or control IgGs; WB of endogenous proteins.

Turning to “Flag-FBXW7 (F-box and WD repeat domain-containing 7, isoform α), wild type (from UniProt Q969H0 1-707)”, the binding entry in assay [1] and in assay [2] was “binds” in each case. As for “endogenous FBXW7 of HCT116 cells (from UniProt Q969H0 1-707)”, the binding result in assay [3] is given as “binds”.
